Tests used:
[1] = peptide synthesis; conditions: whole synthesis
[2] = general procedure: Fmoc solid-phase peptide synthesis; Rink amide MBHA resin (Novabiochem), 0.66 mmol/g; DIC/HOBt; conditions: whole synthesis, analytical HPLC and mass spectrometry, scale of the general procedure 50 μmol

Row | Substance | final HPLC purity [1] | final HPLC purity [2]
1 | Dop2-DPhe-Doc-DPhe-cyclo[Cys-3ITyr(Dop2)-DTrp-Lys-Val-Cys]-Thr-NH2 | 95% | –
2 | Dop2-Lys(Dop2)-DTyr-DTyr-cyclo[Cys-Tyr-DTrp-Lys-Abu-Cys]-Thr-NH2 | – | 93.9%
3 | Dop2-DLys(Dop2)-DPhe-cyclo[Cys-3ITyr-DTrp-Lys-Thr-Cys]-Thr-NH2 | 95.7% | –
4 | Dop2-DPhe-cyclo[Cys-3ITyr-DTrp-Lys-Thr-Cys]-Thr-NH2 | 93.9% | –

From patent publication US7517853 (dated 2009)
